Measurements as given in patent US20130122039A1.
These are yes or no findings as the source states them, for the method shown. Some binding calls cover weakened binding; strength is not graded here.

Sequences of proteins named here, by UniProt entry; tags and fusion partners are left off. Residues count along the entry.
UniProt P01556, residues 22-124: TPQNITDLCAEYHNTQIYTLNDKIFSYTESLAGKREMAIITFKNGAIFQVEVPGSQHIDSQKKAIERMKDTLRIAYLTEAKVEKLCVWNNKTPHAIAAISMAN

Biological target: recombinant CT-B secreted by Peru-15(pCTB) (Vibrio cholerae strain C6709) (UniProt P01556)
Test: SDS-PAGE of concentrated supernate with and without heating

Q: For “recombinant CT-B secreted by Peru-15(pCTB) (from UniProt P01556 22-124)”, which binding is on record?
A: Its binding is “binds”.
